PubChem BioAssay AID1224828 – NIAID, 2016
This is an unselected part of about 17,000 reagents. 762 of all reagents (4.5%) count as active. 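Active calls include both raised and lowered p65 entry, mostly lowered; wells with fewer than 50 cells lack a z-score.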 Raw values vary from plate to plate and are shown uncorrected. Unmarked entries are inactive.

Purpose: 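Knock-downs that increase or decrease LPS-induced p65 nuclear translocation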 (primary screen)
Cells: mouse RAW264.7 G9 macrophage reporter cells (GFP-p65, Tnf promoter-mCherry)
Reagent: siRNA pool against mouse genes, 100 nM
Duration: 2 days siRNA transfection, then 40 min LPS before fixation
Conditions: LPS (Salmonella minnesota R595) at 10 ng/ml
Detection: 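Imaged p65 nuclear translocation ratio, normalised to the plate median, converted to robust z-scores and averaged across two replicates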
Direction: p65 translocation robust z-score: higher = more nuclear NF-kappaB p65 after LPS than the plate median; nuclear/cytoplasmic p65 ratio: higher = more nuclear NF-kappaB p65
Rule for the call: 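Active if robust z is above 3.3 (negative regulators) or below -1.56, the Tlr4 control median (positive regulators); activity score 50 or more; control wells not called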
Meaning of the calls: active = hit (p65 shift raised or lowered); inactive = no clear change

Zfp532 [SID315481503] — p65 translocation robust z-score = -0.06; nuclear/cytoplasmic p65 ratio, rep 1 = 1.45; nuclear/cytoplasmic p65 ratio, rep 2 = 1.48; low cell count flag = enough cells to score
Col27a1 [SID315481736] — p65 translocation robust z-score = -0.72; nuclear/cytoplasmic p65 ratio, rep 1 = 1.49; nuclear/cytoplasmic p65 ratio, rep 2 = 1.65; low cell count flag = enough cells to score
Fbxl21 [SID315477793] — p65 translocation robust z-score = 1.14; nuclear/cytoplasmic p65 ratio, rep 1 = 1.73; nuclear/cytoplasmic p65 ratio, rep 2 = 1.71; low cell count flag = enough cells to score
Azi2 [SID315470546] — p65 translocation robust z-score = 2.08; nuclear/cytoplasmic p65 ratio, rep 1 = 1.82; nuclear/cytoplasmic p65 ratio, rep 2 = 1.88; low cell count flag = enough cells to score
Pcnx2 [SID315480918] — nuclear/cytoplasmic p65 ratio, rep 1 = 1.16; nuclear/cytoplasmic p65 ratio, rep 2 = 1.28; low cell count flag = fewer than 50 cells per well; well left out of scoring
Pcnx2 [SID315480919] — p65 translocation robust z-score = -2.01 (active); nuclear/cytoplasmic p65 ratio, rep 1 = 1.18; nuclear/cytoplasmic p65 ratio, rep 2 = 1.39; low cell count flag = enough cells to score
Dll4 [SID315471248] — p65 translocation robust z-score = 0.42; nuclear/cytoplasmic p65 ratio, rep 1 = 1.56; nuclear/cytoplasmic p65 ratio, rep 2 = 1.41; low cell count flag = enough cells to score
Or4f60 [SID315479953] — p65 translocation robust z-score = 0.82; nuclear/cytoplasmic p65 ratio, rep 1 = 1.73; nuclear/cytoplasmic p65 ratio, rep 2 = 1.6; low cell count flag = enough cells to score
Dusp14 [SID315471512] — p65 translocation robust z-score = 1.08; nuclear/cytoplasmic p65 ratio, rep 1 = 1.7; nuclear/cytoplasmic p65 ratio, rep 2 = 1.46; low cell count flag = enough cells to score
Zbed3 [SID315474460] — nuclear/cytoplasmic p65 ratio, rep 1 = 1.35; nuclear/cytoplasmic p65 ratio, rep 2 = 1.3; low cell count flag = fewer than 50 cells per well; well left out of scoring

Individual results from above:
Zbed3 [SID315474460], nuclear/cytoplasmic p65 ratio, rep 1 → 1.35
Dll4 [SID315471248], nuclear/cytoplasmic p65 ratio, rep 2: 1.41

Next records:
Zfp697 [SID315479596] — p65 translocation robust z-score = 0.47; nuclear/cytoplasmic p65 ratio, rep 1 = 1.65; nuclear/cytoplasmic p65 ratio, rep 2 = 1.79; low cell count flag = enough cells to score
Stra8 [SID315469513] — p65 translocation robust z-score = -1.78 (active); nuclear/cytoplasmic p65 ratio, rep 1 = 1.12; nuclear/cytoplasmic p65 ratio, rep 2 = 1.03; low cell count flag = enough cells to score
Dctn2 [SID315473858] — p65 translocation robust z-score = 0.56; nuclear/cytoplasmic p65 ratio, rep 1 = 1.53; nuclear/cytoplasmic p65 ratio, rep 2 = 1.45; low cell count flag = enough cells to score
Atp5mk [SID315472465] — nuclear/cytoplasmic p65 ratio, rep 1 = 1.8; nuclear/cytoplasmic p65 ratio, rep 2 = 1.25; low cell count flag = fewer than 50 cells per well; well left out of scoring
Sowaha [SID315479364] — p65 translocation robust z-score = -0.2; nuclear/cytoplasmic p65 ratio, rep 1 = 1.33; nuclear/cytoplasmic p65 ratio, rep 2 = 1.52; low cell count flag = enough cells to score
Cox19 [SID315473375] — nuclear/cytoplasmic p65 ratio, rep 1 = 1.28; nuclear/cytoplasmic p65 ratio, rep 2 = 1.32; low cell count flag = fewer than 50 cells per well; well left out of scoring
Cabp1 [SID315470724] — p65 translocation robust z-score = -0.24; nuclear/cytoplasmic p65 ratio, rep 1 = 1.58; nuclear/cytoplasmic p65 ratio, rep 2 = 1.58; low cell count flag = enough cells to score
Slc35c1 [SID315478629] — p65 translocation robust z-score = -1.21; nuclear/cytoplasmic p65 ratio, rep 1 = 1.3; nuclear/cytoplasmic p65 ratio, rep 2 = 1.2; low cell count flag = enough cells to score
Coq5 [SID315470936] — p65 translocation robust z-score = 0.97; nuclear/cytoplasmic p65 ratio, rep 1 = 1.58; nuclear/cytoplasmic p65 ratio, rep 2 = 1.82; low cell count flag = enough cells to score
Spdl1 [SID315474036] — nuclear/cytoplasmic p65 ratio, rep 1 = 1.04; nuclear/cytoplasmic p65 ratio, rep 2 = 1.23; low cell count flag = fewer than 50 cells per well; well left out of scoring
Cend1 [SID315471812] — p65 translocation robust z-score = -0.83; nuclear/cytoplasmic p65 ratio, rep 1 = 1.39; nuclear/cytoplasmic p65 ratio, rep 2 = 1.37; low cell count flag = enough cells to score
